Source: patent publication EP4421166A1, “IMPROVED SPLIT HALOTAGS” (Max-Planck-Gesellschaft zur Förderung der Wissenschaften …, priority 2023, dated 2024)
Part of at least one peptide drawing is inferred or uncertain, most often the ends.

What was measured:
[1] = biological target: cpHaloΔ; test: Affinity of Hpep1 for cpHaloΔ (KD); assay type: binding; conditions: original Halo-Peptide with cpHaloΔ
[2] = tested on: cpHaloΔ; test: EC50 values of Hpeps for the split-HaloTag labeling reaction; assay type: biochemical; conditions: low µM or nM peptide

C[C@H](N)C(=O)N[C@@H](CCCNC(=N)N)C(=O)N[C@@H](CCC(=O)O)C(=O)N[C@H](C(=O)N[C@@H](Cc1ccccc1)C(=O)N[C@@H](CCC(N)=O)C(=O)N[C@@H](C)C(=O)N[C@@H](Cc1ccccc1)C(=O)N[C@@H](CCCNC(=N)N)C(=O)N[C@H](C(=O)O)[C@@H](C)O)[C@@H](C)O [Hpep1]
Kd [1]: 4.6 mM | labeling at low µM or nM concentrations [2]: no detectable activity
